From the M2OR odorant receptor database
Only a part is listed here, and it is no random draw. Calls are pooled over several reports, among them a noisy single-well screen. The list shows a part of the results. Some of the results follow.

Tests used:
Settings in all cases: stereoisomer not certain
[1] = target: T1, OR56A5 (Homo sapiens) (UniProt P0C7T3)
T1 sequence (whole entry): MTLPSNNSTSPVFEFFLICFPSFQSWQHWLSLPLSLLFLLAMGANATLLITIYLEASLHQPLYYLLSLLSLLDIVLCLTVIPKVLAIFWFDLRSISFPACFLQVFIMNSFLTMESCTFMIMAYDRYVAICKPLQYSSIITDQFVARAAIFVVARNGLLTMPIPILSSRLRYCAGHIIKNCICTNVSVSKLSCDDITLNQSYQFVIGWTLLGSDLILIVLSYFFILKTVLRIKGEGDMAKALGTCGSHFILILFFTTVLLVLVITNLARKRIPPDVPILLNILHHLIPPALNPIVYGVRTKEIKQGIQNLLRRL
Method in brief: (§1)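 Values were gathered from published papers (main text and supplementary material), with extra details requested from the original authors when needed, and checked for typos and inconsistencies. Each receptor–molecule pair is called responsive (active) if the original authors judged the measured signal statistically different from baseline, and non-responsive (inactive) otherwise. Assay methods varied by source, often transient mammalian cell-line luciferase assays. Recorded details include cell line, G-protein, co-transfected protein and tags.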

[2] = test system: T2, OR5A1
T2 sequence (whole entry): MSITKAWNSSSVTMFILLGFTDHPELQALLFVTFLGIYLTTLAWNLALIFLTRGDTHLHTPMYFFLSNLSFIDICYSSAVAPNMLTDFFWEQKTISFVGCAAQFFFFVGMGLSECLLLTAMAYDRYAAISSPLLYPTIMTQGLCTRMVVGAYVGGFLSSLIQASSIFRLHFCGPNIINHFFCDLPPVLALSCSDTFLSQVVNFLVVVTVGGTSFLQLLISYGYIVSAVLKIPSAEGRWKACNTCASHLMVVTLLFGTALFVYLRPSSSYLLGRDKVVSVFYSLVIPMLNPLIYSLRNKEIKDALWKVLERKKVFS
Method in brief: as §1

[3] = test system: T3, OR5A1; remark: listed apart in the source
T3 sequence (whole entry): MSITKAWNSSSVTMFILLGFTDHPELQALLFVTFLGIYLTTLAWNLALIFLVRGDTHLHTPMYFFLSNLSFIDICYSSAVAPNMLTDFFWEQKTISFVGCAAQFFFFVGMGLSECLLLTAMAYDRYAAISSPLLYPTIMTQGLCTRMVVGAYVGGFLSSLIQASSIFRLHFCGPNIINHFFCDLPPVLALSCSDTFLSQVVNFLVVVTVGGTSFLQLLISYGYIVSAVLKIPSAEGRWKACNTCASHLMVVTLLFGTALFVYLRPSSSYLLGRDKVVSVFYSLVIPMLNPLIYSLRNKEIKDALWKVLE
Method in brief: as §1

[4] = test system: T4, OR5A1; remark: listed apart in the source
T4 sequence (whole entry): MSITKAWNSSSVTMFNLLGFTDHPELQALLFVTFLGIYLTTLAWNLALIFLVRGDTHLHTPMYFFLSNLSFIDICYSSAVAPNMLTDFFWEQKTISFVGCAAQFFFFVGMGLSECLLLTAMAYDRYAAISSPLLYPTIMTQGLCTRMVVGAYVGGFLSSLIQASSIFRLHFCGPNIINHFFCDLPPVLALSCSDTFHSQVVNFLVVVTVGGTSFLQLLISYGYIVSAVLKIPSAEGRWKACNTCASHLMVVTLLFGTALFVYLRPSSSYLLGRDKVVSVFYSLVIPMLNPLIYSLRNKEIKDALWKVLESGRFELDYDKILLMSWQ
Method in brief: as §1

[5] = target: T5, OR5A2 (Homo sapiens) (UniProt Q8NGI9)
T5 sequence (whole entry): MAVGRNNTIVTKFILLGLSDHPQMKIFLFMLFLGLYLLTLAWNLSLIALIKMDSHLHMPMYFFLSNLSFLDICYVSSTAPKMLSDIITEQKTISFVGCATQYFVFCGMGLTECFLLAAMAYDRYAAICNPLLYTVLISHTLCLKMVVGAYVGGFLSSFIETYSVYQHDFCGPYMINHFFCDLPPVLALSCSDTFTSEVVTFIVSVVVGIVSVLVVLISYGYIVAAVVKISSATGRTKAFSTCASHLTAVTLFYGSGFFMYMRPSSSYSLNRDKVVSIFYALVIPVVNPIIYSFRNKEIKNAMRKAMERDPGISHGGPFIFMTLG
Method in brief: as §1

[6] = target: T6, OR5AK2 (Homo sapiens) (UniProt Q8NH90)
T6 sequence (whole entry): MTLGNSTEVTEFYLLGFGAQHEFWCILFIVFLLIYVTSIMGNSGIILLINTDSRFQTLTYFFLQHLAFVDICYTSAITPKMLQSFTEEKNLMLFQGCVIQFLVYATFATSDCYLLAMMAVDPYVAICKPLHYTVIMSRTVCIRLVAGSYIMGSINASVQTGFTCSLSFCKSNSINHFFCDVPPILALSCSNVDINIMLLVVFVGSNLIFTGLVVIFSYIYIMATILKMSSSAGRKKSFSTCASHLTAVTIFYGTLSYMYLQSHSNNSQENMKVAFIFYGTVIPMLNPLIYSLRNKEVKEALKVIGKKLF
Method in brief: as §1

[7] = target: T7, OR5AN1 (Homo sapiens) (UniProt Q8NGI8)
T7 sequence (whole entry): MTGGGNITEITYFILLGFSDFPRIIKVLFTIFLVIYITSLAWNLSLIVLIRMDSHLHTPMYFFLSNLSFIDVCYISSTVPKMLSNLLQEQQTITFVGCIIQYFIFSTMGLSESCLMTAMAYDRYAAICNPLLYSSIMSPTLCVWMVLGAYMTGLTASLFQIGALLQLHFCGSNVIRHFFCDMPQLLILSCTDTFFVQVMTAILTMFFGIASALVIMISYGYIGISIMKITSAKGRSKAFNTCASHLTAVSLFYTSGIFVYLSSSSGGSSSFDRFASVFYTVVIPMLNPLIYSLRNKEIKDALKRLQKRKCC
Method in brief: as §1

[8] = target: T8, OR5AR1 (Homo sapiens) (UniProt Q8NGP9)
T8 sequence (whole entry): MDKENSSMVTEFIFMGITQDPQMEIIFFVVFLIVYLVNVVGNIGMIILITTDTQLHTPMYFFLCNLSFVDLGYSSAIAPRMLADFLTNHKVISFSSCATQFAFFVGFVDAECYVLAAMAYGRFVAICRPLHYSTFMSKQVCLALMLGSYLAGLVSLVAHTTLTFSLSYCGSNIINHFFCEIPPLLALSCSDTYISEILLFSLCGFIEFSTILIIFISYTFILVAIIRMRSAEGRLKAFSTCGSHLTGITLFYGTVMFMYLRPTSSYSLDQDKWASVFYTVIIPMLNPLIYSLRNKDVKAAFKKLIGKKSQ
Method in brief: as §1

[9] = target: T9, OR5AS1 (Homo sapiens) (UniProt Q8N127)
T9 sequence (whole entry): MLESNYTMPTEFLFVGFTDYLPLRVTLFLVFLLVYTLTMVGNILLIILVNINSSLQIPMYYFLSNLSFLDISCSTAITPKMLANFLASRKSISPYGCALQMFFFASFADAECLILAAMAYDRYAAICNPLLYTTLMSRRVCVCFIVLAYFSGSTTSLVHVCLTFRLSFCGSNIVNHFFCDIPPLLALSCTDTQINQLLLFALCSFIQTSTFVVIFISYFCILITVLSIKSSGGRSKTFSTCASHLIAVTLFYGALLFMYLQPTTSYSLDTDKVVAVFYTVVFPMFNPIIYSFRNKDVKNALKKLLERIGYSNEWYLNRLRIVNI
Method in brief: as §1

[10] = target: T10, OR5AU1 (Homo sapiens) (UniProt Q8NGC0)
T10 sequence (whole entry): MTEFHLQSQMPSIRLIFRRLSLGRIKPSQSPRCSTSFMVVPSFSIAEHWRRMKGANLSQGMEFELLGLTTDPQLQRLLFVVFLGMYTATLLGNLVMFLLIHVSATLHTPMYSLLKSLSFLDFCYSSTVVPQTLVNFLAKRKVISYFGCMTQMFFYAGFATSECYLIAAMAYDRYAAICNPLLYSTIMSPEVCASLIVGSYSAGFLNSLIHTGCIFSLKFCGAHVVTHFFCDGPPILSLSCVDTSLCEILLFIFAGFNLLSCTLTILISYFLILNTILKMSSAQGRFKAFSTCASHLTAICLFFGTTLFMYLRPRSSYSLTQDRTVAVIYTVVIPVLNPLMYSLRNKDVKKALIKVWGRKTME
Method in brief: as §1

[11] = target: T11, OR5B17 (Homo sapiens) (UniProt Q8NGF7)
T11 sequence (whole entry): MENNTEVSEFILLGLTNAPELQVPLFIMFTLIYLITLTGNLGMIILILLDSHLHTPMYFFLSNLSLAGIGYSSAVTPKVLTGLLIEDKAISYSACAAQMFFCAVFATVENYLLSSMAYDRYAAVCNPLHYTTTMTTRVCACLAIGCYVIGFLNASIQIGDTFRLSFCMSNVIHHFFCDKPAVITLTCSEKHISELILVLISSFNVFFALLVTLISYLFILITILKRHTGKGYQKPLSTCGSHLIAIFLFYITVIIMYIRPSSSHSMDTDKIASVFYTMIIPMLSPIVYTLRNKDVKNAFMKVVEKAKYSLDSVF
Method in brief: as §1

[12] = target: T12, OR5AC2 (Homo sapiens) (UniProt Q9NZP5)
T12 sequence (whole entry): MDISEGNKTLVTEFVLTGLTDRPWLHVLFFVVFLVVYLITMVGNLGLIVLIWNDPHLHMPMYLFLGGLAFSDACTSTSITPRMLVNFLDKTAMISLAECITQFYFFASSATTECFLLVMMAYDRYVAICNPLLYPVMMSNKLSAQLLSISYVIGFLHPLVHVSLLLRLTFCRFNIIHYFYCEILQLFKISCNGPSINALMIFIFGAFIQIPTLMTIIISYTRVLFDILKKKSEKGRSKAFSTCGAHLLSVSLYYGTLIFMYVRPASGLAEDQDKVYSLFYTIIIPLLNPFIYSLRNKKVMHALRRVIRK
Method in brief: as §1

Measured: odorant receptor agonist call

CCC1(O)C2(C)CCC(C2)C1(C)C (stereo unspecified)
not listed: [12]
inactive: all other assays above

c1cnccn1
not listed: [12]
inactive: all other assays above

CCCCCC(C)=O
not listed: [1]
inactive: all other assays above

COC(=O)c1ccccc1
not listed: [1] | [12]
inactive: all other assays above

CC12CCC(C1)C(C)(C)C2=O (stereo unspecified)
not listed: [12]
inactive: all other assays above

CC(C)C(=O)O
active: [1]
not listed: [12]
inactive: all other assays above

O=CCc1ccccc1
not listed: [12]
inactive: all other assays above

CC1=NC(C)SC1C (stereo unspecified)
not listed: [1] | [12]
inactive: all other assays above

CC(=O)OCC=C(C)CCC=C(C)C
not listed: [12]
inactive: all other assays above

CCCCCCCC=O
active: [1]
not listed: [12]
inactive: all other assays above

COc1ccccc1O
not listed: [12]
inactive: all other assays above

COc1cc(C)ccc1O
not listed: [12]
inactive: all other assays above

CC1CCC(C(C)C)C(O)C1 (stereo unspecified)
active: [2]
not listed: [12]
inactive: all other assays above

CC(C)(C)c1ccc(CCC=O)cc1
not listed: [12]
inactive: all other assays above

CC(=O)c1ccccc1
active: [5]
not listed: [1] | [12]
inactive: all other assays above

CCCCCC(=O)O
not listed: [12]
inactive: all other assays above

O=C1CCCCC1
active: [9]
not listed: [1] | [12]
inactive: all other assays above

CCCCCCCOC(C)=O
not listed: [12]
inactive: all other assays above

CC(C)C=O
not listed: [12]
inactive: all other assays above

CC1COCc2cc3c(cc21)C(C)(C)C(C)C3(C)C (stereo unspecified)
inactive: [3] | [4] | [5] | [9] | [11]
not listed: [12]
active: all other assays above

CCCCCCCCCCC=O
not listed: [12]
inactive: all other assays above

c1ccc(Oc2ccccc2)cc1
not listed: [12]
inactive: all other assays above

CC(C)CC(=O)O
active: [1]
not listed: [12]
inactive: all other assays above

CC12C=CCC1C1CCC3=CC(=O)CCC3(C)C1CC2 (stereo unspecified)
not listed: [12]
inactive: all other assays above

CC1=CCC(C(C)(C)O)CC1 (stereo unspecified)
not listed: [12]
inactive: all other assays above
